Reference: PubChem BioAssay AID2685 (National Center for Advancing Translational Sciences (NCATS), 2010)
The list shows a part of the results. Further columns of the screen follow, without active or inactive calls. The list favours compounds with an active or inconclusive main result. Potencies come from curve fits of mixed quality, noted in brackets.

Experiment: qHTS Assay for Lipid Storage Modulators in Drosophila S3 Cells;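 for cell number change: cells counted by Cell Tracker Red CMTPX staining in the red channel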
Conditions: BODIPY lipid droplet fluorescence, 18-24 h; for cell number change: measured here: cell count max response, cells fed with added oleic acid
Method in brief: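 Laser-scanning cytometry quantifies lipid droplet accumulation (500–530 nm total intensity; droplet/cell object ratio) in oleic acid-fed (400 uM added) Drosophila S3 cells treated with a concentration series. 20 uM Triacsin C defined 100% inhibition.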

[1] = measured here: lipid fluorescence (Fed channel) AC50, cells fed with added oleic acid
[2] = measured here: cell number channel AC50, cells fed with added oleic acid

## CCN(CC)Cc1cc(C(=O)O)c(-c2ccccc2)o1
  cell number change: -3.92%
[1]
  AC50: 0.0731 µM [falling, full curve, poor fit]

## O=C(NCc1cccs1)C1CCCN1C(=O)Nc1ccccc1 (stereo not drawn)
  cell number change: -18.1%
[1]
  AC50: 23.1 µM [falling, partial curve]

## COc1cc(CNCCCSc2nnnn2C)cc(Br)c1OC
  cell number change: -13.2%
[1]
  AC50: 32.6 µM [falling, single point]

## O=C(O)c1cccnc1Sc1ccccc1
  cell number change: 70.6%
[2]
  AC50: 29.1 µM [rising, single point]

## CC(C)(C)c1ccc(Cn2nnc3c(=O)[nH]c(C4CCN(C(=O)c5ccco5)CC4)nc32)cc1
[1]
  AC50: 18.4 µM [falling, partial curve]

## O=C(Nc1ccccc1Cl)c1cccc(COc2cc(Cl)ccc2Cl)c1
  cell number change: 44.2%
[2]
  AC50: 11.6 µM [rising, partial curve, poor fit]

## CCC(c1nnc(SCc2nc3ccccc3s2)n1Cc1ccccc1)N(C)C (stereo not drawn)
[1]
  AC50: 2.06 µM [rising, single point]

## CC(C)(Oc1ccc(Cl)cc1)C(=O)NCC1CCCO1 (stereo not drawn)
  cell number change: 5.5%

## O=C(O)CN1C(=O)/C(=C\c2ccccc2OCc2ccc(Cl)cc2Cl)SC1=S
  cell number change: -41%
[2]
  AC50: 32.6 µM [falling, single point]

## NC(=O)CN1C(=O)NC2(CCCc3ccccc32)C1=O (stereo not drawn)
[1]
  AC50: 29.1 µM [rising, single point]

## CC(C)(C)SC(=O)CC1NS(=O)(=O)OC2CCCCC12 (stereo not drawn)
  cell number change: 14.9%
[1]
  AC50: 0.58 µM [rising, single point]

## COc1nc(OC)nc(N2CCC(NC(=O)C(Cc3ccc(C(C)C)cc3)NC(C)=O)CC2)n1 (stereo not drawn)
[2]
  AC50: 6.51 µM [rising, single point]

## CN(C)c1ccc(/C=N/NC(=O)CN2CCN(c3ccc(F)cc3)CC2)cc1
  cell number change: -6.21%
[2]
  AC50: 1.84 µM [falling, partial curve, poor fit]
[1]
  AC50: 2.31 µM [falling, partial curve]

## C/C(Cn1nc([N+](=O)[O-])cc1C)=N\NC(=O)c1ccc(C(C)(C)C)cc1
  cell number change: 3.85%
[1]
  AC50: 0.92 µM [rising, full curve, poor fit]

## COC(=O)c1ccc(C2/C(=C(\O)c3ccc4c(c3)OCCO4)C(=O)C(=O)N2CCCN(C)C)cc1 (stereo not drawn)
  cell number change: -20.2%
[2]
  AC50: 0.0058 µM [falling, full curve, poor fit]
[1]
  AC50: 0.00411 µM [falling, full curve, poor fit]

## NC(=O)C1CCN(C(=O)CN2CCCc3ccccc32)CC1
[2]
  AC50: 0.291 µM [falling, partial curve, poor fit]

## COc1cc2c(cc1OC)CN(S(=O)(=O)c1cccs1)CC2
  cell number change: 30.6%
[2]
  AC50: 4.11 µM [rising, full curve, poor fit]
[1]
  AC50: 18.4 µM [rising, single point]

## Cc1c(C)c2c(OCC(=O)NCC(C)C)cc3c(c2oc1=O)CCC(C)(C)O3
[1]
  AC50: 0.58 µM [rising, single point]

## Cc1ccc(C(=O)COC(=O)CNC(=O)c2ccccc2)s1
  cell number change: 21.7%
[1]
  AC50: 25.9 µM [rising, single point]

## COc1ccc(C2c3ccc(O)cc3Oc3ncn4nc(-c5ccncc5)nc4c32)cc1OC (stereo not drawn)
  cell number change: -2.01%
[1]
  AC50: 0.517 µM [falling, single point]

## COc1cc(/C=C2\SC(=Nc3ccccc3OC)NC2=O)ccc1O
  cell number change: -44.8%
[2]
  AC50: 5.17 µM [falling, partial curve]

## COc1ccc(OC)c(Nc2nc(-c3sc(NC(=O)C(C)(C)C)nc3C)cs2)c1
  cell number change: -51.2%
[2]
  AC50: 11.6 µM [falling, partial curve, poor fit]
[1]
  AC50: 16.4 µM [falling, partial curve]

## CCOC(=O)C1=C(CC)OC(N)=C(C#N)C1c1cc(OC)ccc1OC (stereo not drawn)
  cell number change: -13.9%

## CC1CN(C(=O)CCC(=O)NC2CCCCC2)c2ccccc2S1 (stereo not drawn)
  cell number change: 19%

## O=C(Nc1ccc(N2CCOCC2)c(Cl)c1)c1ccc([N+](=O)[O-])o1
  cell number change: -64.2%
[2]
  AC50: 5.17 µM [falling, partial curve]
[1]
  AC50: 5.17 µM [falling, full curve]

## CCOC(=O)Nc1nc(-c2ccc(F)cc2F)cs1
  cell number change: 23.8%
[1]
  AC50: 6.51 µM [rising, single point]

## Cc1ccc(-c2csc3ncn(CC#N)c(=O)c23)cc1C
  cell number change: -8.28%
[2]
  AC50: 0.58 µM [rising, single point]
[1]
  AC50: 0.146 µM [rising, full curve, poor fit]

## O=C(c1ccco1)N1CCN(S(=O)(=O)c2ccccc2)CC1
  cell number change: 15.3%
[1]
  AC50: 0.206 µM [rising, full curve, poor fit]

## O=C(Nc1ccccc1C(=O)N1CCN(CCO)CC1)c1cccc([N+](=O)[O-])c1
  cell number change: -0.289%
[1]
  AC50: 29.1 µM [rising, single point]

## CC1(c2ccccc2)NC(=O)N(CC(=O)Nc2ccc3c(c2)OCO3)C1=O (stereo not drawn)
  cell number change: 18%
[1]
  AC50: 2.91 µM [rising, single point]

## CC1C2=C(CC(C)(C)CC2=O)NC2=C1C(=O)CC(C)(C)C2
  cell number change: -17.8%

## Cc1ccccc1CSc1nc(C(C)(C)C)cc(=O)[nH]1
  cell number change: 13.1%
[1]
  AC50: 1.3 µM [rising, full curve, poor fit]

## CCC(=O)N/N=C(\C)CC(=O)Nc1ccc(F)cc1
  cell number change: -13.6%

## COc1ccc(OC)c2[nH]c(=O)c(CCNS(=O)(=O)c3ccc(F)cc3)cc12
  cell number change: -27.6%
[2]
  AC50: 3.66 µM [falling, full curve, poor fit]

## O=C(NNC(=O)c1ccc(Cl)cc1Cl)c1cnccn1
  cell number change: -19.3%

## OCCNc1ncnc2c1nnn2Cc1ccccc1
  cell number change: 17.2%
[1]
  AC50: 29.1 µM [falling, single point]

## COC(=O)C1C(=O)/C(=C(/C)N2CCCC2)C(=O)CC1(C)C (stereo not drawn)
  cell number change: 48.7%
[2]
  AC50: 13 µM [rising, partial curve, poor fit]

## COc1cccc(Nc2ccc(N3CCCCC3)cc2)c1OC
  cell number change: -56.5%
[2]
  AC50: 0.651 µM [falling, full curve]
[1]
  AC50: 0.58 µM [falling, full curve]

## COc1ccc(C(NC(C)=O)c2cc(Cl)c3cccnc3c2O)cc1 (stereo not drawn)
  cell number change: -11.3%
[2]
  AC50: 4.11 µM [rising, partial curve]
[1]
  AC50: 23.1 µM [falling, single point]

## O=C(O)Cc1ccc(NC(=O)c2ccc(Cl)c(Cl)c2)cc1
  cell number change: 29.6%
[1]
  AC50: 20.6 µM [rising, single point]

## Cc1ccc(S(=O)(=O)N2CCN(C(=O)c3ccnn3C)CC2)cc1C
  cell number change: 25.5%
[1]
  AC50: 29.1 µM [rising, single point]

## COc1ccccc1CNc1ccc(N2CCCCC2)cc1
  cell number change: 12.7%

## COc1cc2c(cc1OC)C(c1ccc(-c3ccc(Cl)c(Cl)c3)o1)=NCC2
[2]
  AC50: 0.517 µM [rising, partial curve, poor fit]
[1]
  AC50: 0.00461 µM [rising, full curve, poor fit]

## OCC1(Cc2ccccc2)CCN(Cc2cc3ccccc3o2)CC1
  cell number change: -12.5%
[1]
  AC50: 0.651 µM [falling, full curve, poor fit]

## Cc1ccc(/C(O)=C2/C(=O)C(=O)N(CCN3CCOCC3)C2c2ccccn2)cc1 (stereo not drawn)
[1]
  AC50: 6.51 µM [falling, single point]

## COc1ccc(N(CC(=O)NC2CCCC2)S(=O)(=O)c2ccc(NC(C)=O)cc2)cc1
  cell number change: -31.4%
[2]
  AC50: 0.0517 µM [falling, full curve, poor fit]
[1]
  AC50: 0.13 µM [rising, full curve]

## C=C1C[C@H]2[C@@H]3C=C(C)C4=CC(=O)CC[C@]4(C)[C@H]3CC[C@]2(C)[C@@]1(OC(C)=O)C(C)=O
  cell number change: 25.9%
[2]
  AC50: 0.651 µM [rising, full curve, poor fit]
[1]
  AC50: 1.03 µM [rising, full curve]

## CCOC(=O)N1CCN(C(=O)c2ccc(N3C(=O)CCC3=O)cc2)CC1
  cell number change: -33.8%
[2]
  AC50: 0.0366 µM [falling, full curve, poor fit]
[1]
  AC50: 25.9 µM [falling, partial curve]

## Cc1ccc(C)c(C(=O)OCC(=O)Nc2cccc(S(=O)(=O)N3CCCCC3)c2)c1
  cell number change: 7.74%
[1]
  AC50: 32.6 µM [rising, single point]

## CCOc1cccc(/C=C(/C#N)c2nc3ccccc3[nH]2)c1OCC(=O)O
  cell number change: 9.85%
[1]
  AC50: 29.1 µM [rising, single point]

## CCOC(=O)/C(N=Nc1ccc(Cl)cc1)=C(/O)c1ccc([N+](=O)[O-])cc1
  cell number change: 37.1%
[2]
  AC50: 2.31 µM [rising, partial curve]
[1]
  AC50: 6.51 µM [rising, single point]

## CCN(CC)C(=O)CSc1nc2ccccc2o1
  cell number change: 9.25%
[1]
  AC50: 0.291 µM [rising, full curve, poor fit]

## O=C(COC(=O)C1(c2ccccc2F)CCCC1)Nc1ncc(C(F)(F)F)cc1Cl
  cell number change: -39.1%
[2]
  AC50: 18.4 µM [falling, partial curve, poor fit]
[1]
  AC50: 14.6 µM [falling, partial curve]

## CCC(=O)Nc1sc(C(=O)OC)c(C)c1C(=O)OC
  cell number change: -3.46%
[1]
  AC50: 0.461 µM [rising, full curve]

## COCCN(C(=O)Nc1ccc(OC)cc1)c1nc2ccccc2s1
  cell number change: -2.76%
[1]
  AC50: 8.2 µM [falling, partial curve]

## O=C(NCCc1csc(-c2cccc(F)c2)n1)c1ccco1
[1]
  AC50: 0.116 µM [falling, single point]

## CCN1C(=O)/C(=C/c2ccc(N3CCCC3)cc2)NC1=S
  cell number change: -24.7%
